The record followed here is PubChem BioAssay AID1347423 (Functional Genomics Laboratory (NCATS/FGL), 2020).

The campaign covered roughly 52,000 sequences. About 210 (0.4%) were called active.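 The calls were made as follows: active = gene whose silencing raises cell survival under the drug, median off-target-corrected z-score across its silencing RNAs 2 or more; inactive = the rest.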 Some of the results follow.

The test is described as follows: Resistance to Poly (ADP-Ribose) Polymerase inhibitor: Gene Identification via Genome-wide siRNA Screen. The following applies: mouse BRCA2 R2336H ES cells, olaparib, CellTiter-Glo viability; hits give high values. In outline:
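Mouse BRCA2 R2336H ES cells were reverse-transfected with siRNA (20 nM final), treated at 48 h with 500 nM olaparib, and read by CellTiter-Glo after 72 h. Scores: MAD-based z per siRNA, median per gene, seed off-target correction.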
With GCUUAUGUUGUUGUGCAUUTT against Zfyve21, the z-score is inactive: 0.123.
As for GCUCUCGGAAUGAUUUAUATT against Acas2l, the z-score was inactive: 0.157.
With GCCAAAUGACCUUCAGUGUTT against Klk24, the z-score is inactive: -0.893.
With CCUAUUUUCUAUGUUGCCUTT against Cnil, the z-score is inactive: 0.342.
With GCCAUCGUGAGAAGACUUCTT against Nt5c3, the z-score is inactive: -0.307.
As to CCUCAUCGAAUUCGAUACCTT against Arrb2, the z-score was inactive: 1.25.
On to GGAUGACUGGAACUUCCUCTT against Kcnk1, for which the z-score was inactive: 1.66.
The result for GCCCAUGACAUUCUCCAUUTT against Cdh17 reads inactive: 0.695.
Consider GGAACAGCUCAACACAAGATT against Adam11, for which the z-score is inactive: 0.454.
Consider GGCAUCCCUCUAGAGAACATT against Erbb2ip, for which the z-score is inactive: 0.358.
GGCUCUAUAUCUAUACUGATT against Srst: the z-score was inactive: -0.528.
Take “CCGGAUUCGAGAGGUGAUGTT against 4930413P14Rik”: the z-score is inactive: -1.58.
With “GGUGGUUGCCUUUAUGAAGTT against 8430420C20Rik”, the z-score was inactive: 0.98.
Regarding GGUUUUAGUAUGUAGUGUUTT against Pxt1, the z-score was inactive: 0.485.
Turning to GGAAAGGGACCAAUUCAGATT against Fv1, the z-score is inactive: 0.00626.
With UCAUUCUACCUGGAACCGGTT against Gm691, the z-score is inactive: -1.71.
Take CCUAUGAAGCAAUUUGAUCTT against Lnx2: the z-score was inactive: 0.81.
Turning to “GCUUCAUUUGUGCCUCUAUTT against 4932417H02Rik”, the z-score is inactive: -0.443.
The figure for GGCGACUUGUGCCUAACUUTT against LOC406217 is inactive: 1.49; for CGACAUCAAAUACGGAUCUTT against Sdf2l1 it is inactive: -0.322.
Consider CCAGCUUAAUGAGUUCAUGTT against Abca7, for which the z-score was inactive: -0.525.
For GCAUGAGACUAUGCACCUATT against Snca, the z-score is inactive: -0.183.
For the sequence “GCACUAUCGUUUUUCAAUCTT against B130008E12Rik”, the z-score is inactive: -0.00146.
For CGAGAAUUUUACAUGAGAGTT against Fthfsdc1, the z-score is inactive: -0.0647.
Turning to GGACCUCAUUGUUUAGUCATT against Cmya5, the z-score is inactive: -0.607.
Turning to GGAUAUCGGGAUGAAAUUGTT against Meig1, the z-score was inactive: -1.34.
GAUGUGUGCUCAUGGUUUUTT against Olfr622: the z-score is inactive: 0.281.
The figure for GGUCUCCAUGAGUUUGAUUTT against Pik3cd is inactive: -0.713; for GGUCAACCACAGCUACUGCTT against Pias4 it is inactive: -0.422; for GGUACCAUUCAGCAAUAAGTT against Muc19 it is inactive: -0.618.
Turning to “GGCUCUGGACCAACUACUATT against A830043J08Rik”, the z-score was inactive: -1.48.
Regarding CCAGUGUGAAAUGAUCCUUTT against Hddc2, the z-score was inactive: 1.68.
Take GGACUUCUCCAAUGACCUGTT against Creb3l1: the z-score was inactive: 2.51.
Turning to GCAAUCAUUAAGCAGAUCATT against Prkce, the z-score was inactive: -2.49.
The figure for “GCACGUUAGUAAGUAGUUATT against 9630054F20Rik” is inactive: -0.343.
Regarding GGCAACAGUUGGCUAUCUUTT against Entpd7, the z-score is inactive: 0.128.
Take GAUCUUACUCAGCAGACCUTT against Ifna2: the z-score was inactive: 1.72.
As for GGACAAGCAUGUUUUCUGCTT against V1rb7, the z-score was inactive: -0.509.
The result for “GCGUAUGCCAAGGAACUCATT against 1110051M20Rik” reads inactive: -0.963; that for GCGGAUUAACCUCUGUGGCTT against Gm580, inactive: 0.574; that for “GGUGAUCUAUCCCUAUUCATT against 2810457I06Rik”, inactive: -1.56.
Consider CCAGGUCUUAAUUACAGAGTT against Capza1, for which the z-score was inactive: -0.351.
Turning to “GGAAGAUGCCUACUUCAGATT against 4632433K11Rik”, the z-score is inactive: -0.892.
Consider GGCAGCAGUUAAUUUACUUTT against Mmp21, for which the z-score was inactive: -1.35.
For the sequence GGCCUGCUACUUUUGAUGCTT against Olfr166, the z-score was inactive: -0.523.
GGAAGUUCGUGGAAGGCAATT against Pck1: the z-score was inactive: -0.614.
For the sequence GGCUUUGUUGACCACUCAGTT against Ndst2, the z-score was inactive: -0.435.
With CGGAUUCUAAAUGCUGUAATT against Aox3, the z-score was inactive: -0.551.
The figure for GCAAGAACAUUAUGAAAGUTT against Epb4.1 is inactive: -0.422; for GGCAGCUCAGGAAAAUAAATT against Htr4 it is inactive: -0.854; for GGAUUCACUGUUUUAUUCUTT against Fap it is inactive: 0.849.
On to “GGAUAGCUUGAUCAAUCUUTT against 1500009M05Rik”, for which the z-score was inactive: 0.939.
Regarding CCGAUUGUAUUUCUAUAAGTT against Klf2, the z-score is inactive: 1.04.
For the sequence GGGUGAGUUCUUAAGCUCATT against Ndufb2, the z-score was inactive: 0.0075.
Regarding “GGGAAAGGAGCCAUUAUUGTT against 2610110G12Rik”, the z-score is inactive: -1.85.
Turning to GGUGGAACAGUGGAAUUCGTT against Grhpr, the z-score is inactive: 0.0216.
Consider GUUCCCUGCCUGGCAGAAUTT against Foxd2, for which the z-score is inactive: 1.34.
In the case of CCAGACCUGCGCUUUUUUGTT against Myod1, the z-score was inactive: -0.85.
With GGUACUGGAAGAGGAGGUATT against Ppil3, the z-score is inactive: -1.71.
Take GGUCAGCAAAGAAAUCUUCTT against Exosc5: the z-score was inactive: -1.56.
With GGCCAGCAAUAAAACUGUCTT against Max, the z-score is inactive: -2.41.
The figure for GGAAUAACAGCCUUGUAUUTT against Slc25a15 is inactive: -0.0616.
CGGAUUCAUUCGGAUGUGCTT against Rln1: the z-score is inactive: 0.422.
Turning to GGUGUUUGUGACUCUGGGUTT against Mc4r, the z-score is inactive: 1.06.
Take GGACCUGCACUUAAUGUUUTT against Gabarap: the z-score was inactive: -1.03.
GGGACUAUGGUGUCAGAAATT against Clecsf10: the z-score is inactive: -0.611.
Turning to CCAAACCCAGUUGCAUUUGTT against Slitrk5, the z-score was inactive: -1.43.
As to GCUUAUUCGGGAUAAAGUATT against Elavl1, the z-score is inactive: 0.339.
Regarding “GCACGUACCUGAUAGUCCUTT against E330036I19Rik”, the z-score is inactive: 0.126.
The result for GGCUAACAUGGUUUUAUAUTT against Cldn1 reads inactive: 0.429; that for GCUCUACGUUGAAGAGCGATT against Mad2l2, inactive: 1.13.
Take “CCUGAAAGAAAAGAAGGACTT against 2610009E16Rik”: the z-score is inactive: -0.282.
Turning to CGCAUGUUCAUAGGACUGCTT against Olfr1420, the z-score is inactive: -0.137.
Consider GCAUCGAUGGACUCUUUAUTT against Fbxo40, for which the z-score is inactive: -2.39.
Regarding CGGUAUAUAGAUCACUUCUTT against Olfr56, the z-score was inactive: -0.919.
The figure for GGCUAAAGACCAGUAUUUGTT against Cdh7 is inactive: 0.465; for CGCAGGUAUACAGGACUGCTT against LOC434768 it is inactive: -0.724.
The result for GCUAGCGGCAGUAUUCUGUTT against Rab7 reads inactive: 0.104; that for GGCCUUUAGCACCUACAGCTT against Olfr952, inactive: -0.0308; that for CCAGAAAGAGAGCUCUAGGTT against Diap1, inactive: 0.483.
On to GCUCUAUUUUUUCAUCUCCTT against Olfr1415, for which the z-score was inactive: 0.662.
As for “GGUCGACAUUGAAGCUAUUTT against 0710005M24Rik”, the z-score is inactive: -0.779.
For CCAGAGUUUUCGAGGCCAATT against Olfr1349, the z-score was inactive: -1.01.
In the case of GGGUCUGCUACAUCUUCGGTT against AI225782, the z-score is inactive: 0.468.
With “GGAGCUAGAGCUGAAGGAUTT against 1810023F06Rik”, the z-score was inactive: -1.31.
For GGUUUGCACACACUUUGCCTT against Bai2, the z-score is inactive: 0.0839.
With GCUAAUAAAGCAUUCAGCATT against Bivm, the z-score is inactive: -0.234.
As for GGAUGAAGAGAAAGAGGAATT against Zfpm1, the z-score is inactive: -2.42.
On to “GCAUCAGCGUAAAAUGAUUTT against B130022O04Rik”, for which the z-score is inactive: 0.562.
The figure for GGAACUGAGUAGUCUGAAGTT against Ap4e1 is inactive: -1.62; for “CGUGUCGCACAGGUACUUUTT against 1810009O10Rik” it is inactive: 0.463.
On to “GGACUGAAGCUGAAUUCCUTT against 0610012G03Rik”, for which the z-score was inactive: -0.232.
As for GCCGUUGAAAAGGUUGGAUTT against Anp32b, the z-score is inactive: 0.0472.
Take CCAACCGUUUGCUACUCUUTT against Pgbpll: the z-score was inactive: 0.877.
For CCUGGAAUCACACAUACCUTT against Abr, the z-score was inactive: -0.383.
Take GGUAUUCGUGGUGAUGGAGTT against AI325941: the z-score is inactive: 0.629.
On to GGGUAUGUAUUACCUCGAGTT against Erbb3, for which the z-score is inactive: -1.72.
As to GCAUCAUAAUGGGAUGCUGTT against P518, the z-score is inactive: 0.226.
The figure for GGCAAUCCAGUUAUCCCAGTT against Prlpa is inactive: 0.819.
The result for GGCACAGAAAGAGAAAUACTT against Ivd reads inactive: 2.91; that for CCUAGAUAGGCUUGUAGCCTT against Mylpf, inactive: 0.74; that for GUCCUCCAUGAAGAAGCUCTT against Prm3, inactive: 0.527.
GGAUUCCAAUUUUAUUCCATT against Brca1: the z-score is inactive: -2.21.
Consider GGAAAAAUGACCACAUACUTT against Gucy1b2, for which the z-score was inactive: 0.000128.
